# According to paper PMC8494447:
# By UniProt entry, the sequences of proteins in these tests, tags left out. Where a name states a change or a piece, a line headed by the entry shows the natural chain unless it says otherwise.
# UniProt Q13546: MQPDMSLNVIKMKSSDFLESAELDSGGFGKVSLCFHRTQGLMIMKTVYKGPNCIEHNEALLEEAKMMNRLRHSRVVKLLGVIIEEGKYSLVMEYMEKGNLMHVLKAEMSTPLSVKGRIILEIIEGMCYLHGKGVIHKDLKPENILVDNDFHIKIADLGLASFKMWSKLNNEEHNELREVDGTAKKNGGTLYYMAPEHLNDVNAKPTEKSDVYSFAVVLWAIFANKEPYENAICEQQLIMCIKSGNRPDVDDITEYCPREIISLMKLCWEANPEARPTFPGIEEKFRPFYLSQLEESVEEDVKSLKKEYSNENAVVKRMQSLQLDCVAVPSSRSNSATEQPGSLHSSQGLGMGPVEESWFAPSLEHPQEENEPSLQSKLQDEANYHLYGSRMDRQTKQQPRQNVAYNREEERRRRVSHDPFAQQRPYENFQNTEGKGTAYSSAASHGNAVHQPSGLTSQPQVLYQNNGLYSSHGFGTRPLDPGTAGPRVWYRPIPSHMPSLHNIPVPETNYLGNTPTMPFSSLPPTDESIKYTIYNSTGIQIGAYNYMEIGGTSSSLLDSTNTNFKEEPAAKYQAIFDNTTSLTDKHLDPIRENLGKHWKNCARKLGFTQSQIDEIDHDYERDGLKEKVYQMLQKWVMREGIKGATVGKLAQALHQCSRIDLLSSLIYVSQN
# UniProt P19438: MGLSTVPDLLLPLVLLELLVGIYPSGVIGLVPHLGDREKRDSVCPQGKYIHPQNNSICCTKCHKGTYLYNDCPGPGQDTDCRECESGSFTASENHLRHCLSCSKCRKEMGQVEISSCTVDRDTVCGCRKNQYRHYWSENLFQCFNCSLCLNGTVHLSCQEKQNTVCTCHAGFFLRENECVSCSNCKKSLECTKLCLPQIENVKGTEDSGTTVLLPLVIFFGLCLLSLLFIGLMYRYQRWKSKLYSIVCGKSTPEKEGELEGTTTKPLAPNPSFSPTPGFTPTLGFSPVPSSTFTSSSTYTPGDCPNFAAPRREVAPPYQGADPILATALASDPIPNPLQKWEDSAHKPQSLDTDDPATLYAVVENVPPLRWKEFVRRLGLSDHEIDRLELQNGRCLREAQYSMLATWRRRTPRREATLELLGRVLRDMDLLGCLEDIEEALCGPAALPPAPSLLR
# UniProt Q13490: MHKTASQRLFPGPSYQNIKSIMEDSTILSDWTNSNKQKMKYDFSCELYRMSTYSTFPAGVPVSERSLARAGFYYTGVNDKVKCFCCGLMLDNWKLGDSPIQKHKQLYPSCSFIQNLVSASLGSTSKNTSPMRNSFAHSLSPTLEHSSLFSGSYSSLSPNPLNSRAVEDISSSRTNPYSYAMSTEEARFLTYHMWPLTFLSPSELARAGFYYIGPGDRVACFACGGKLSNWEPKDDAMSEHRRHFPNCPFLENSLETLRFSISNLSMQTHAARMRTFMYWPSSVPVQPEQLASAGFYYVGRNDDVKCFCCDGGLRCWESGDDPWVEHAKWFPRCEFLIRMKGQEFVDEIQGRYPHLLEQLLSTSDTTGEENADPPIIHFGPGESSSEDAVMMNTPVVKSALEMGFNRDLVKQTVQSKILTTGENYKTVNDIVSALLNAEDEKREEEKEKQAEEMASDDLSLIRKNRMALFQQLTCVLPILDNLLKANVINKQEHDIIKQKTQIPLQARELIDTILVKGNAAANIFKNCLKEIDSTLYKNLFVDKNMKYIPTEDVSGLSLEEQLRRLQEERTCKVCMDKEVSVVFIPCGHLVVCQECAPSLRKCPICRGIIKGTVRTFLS
# UniProt P48723: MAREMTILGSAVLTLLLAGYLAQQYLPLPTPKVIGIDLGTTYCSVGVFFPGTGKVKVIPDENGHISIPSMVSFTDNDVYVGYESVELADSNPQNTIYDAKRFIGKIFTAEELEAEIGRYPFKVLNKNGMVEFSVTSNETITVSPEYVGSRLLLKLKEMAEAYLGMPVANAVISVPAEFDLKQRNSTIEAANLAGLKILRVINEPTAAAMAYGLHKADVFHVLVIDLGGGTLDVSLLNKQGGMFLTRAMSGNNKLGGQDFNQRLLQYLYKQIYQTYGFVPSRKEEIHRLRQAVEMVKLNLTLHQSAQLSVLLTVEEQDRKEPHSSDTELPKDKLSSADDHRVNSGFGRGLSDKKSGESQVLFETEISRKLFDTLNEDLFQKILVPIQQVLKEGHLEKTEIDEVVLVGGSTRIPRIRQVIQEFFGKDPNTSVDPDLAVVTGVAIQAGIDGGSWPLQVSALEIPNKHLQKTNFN
# Results are given in words; binding and its absence hold for the method and conditions named. In cells and extracts the contact can be indirect. Binding can be weak; no strength is given.
# Key:
# [1] = biological target: RIP1 (transfected, tag not told) (UniProt Q13546); assay: co-IP; HEK293T transiently transfected, 24 h, with or without TNFα (10 ng/ml) for the indicated time; IP with anti-Flag, 4 h at 4°C; IP lysis buffer (150 mM NaCl, 20 mM tris-HCl pH 7.5, 0.5% Triton X-100, 0.5% NP-40); Western blot
# [2] = biological target: TNFR1 (transfected, tag not told) (UniProt P19438); assay: as above
# [3] = biological target: cIAP1 (UniProt Q13490); assay: as above
# [4] = biological target: GST-HSPA13 (UniProt P48723); assay: pull-down; purified GST-HSPA13 with in vitro translated protein, 2 h in GST-binding buffer (150 mM NaCl, 50 mM tris-HCl pH 7.5, 0.5% NP-40); Western blot; only the target purified
binding [1],binding [2],binding [3],binding [4],Substance
binds,binds,binds weakly,–,"HSPA13 (transfected, tag not told) (from UniProt P48723)"
–,–,–,binds,in vitro translated RIP1 (from UniProt Q13546 1-671)
–,–,–,binds,in vitro translated TNFR1 (from UniProt P19438 1-455) (receptor)
